Data reported in PMC5592675.

Protein sequences, listed by entry. Tags and fused reporters are not part of them. Lines headed by an entry give the natural chain unless they say otherwise; changes in a name come on top.
UniProt Q9JKF1: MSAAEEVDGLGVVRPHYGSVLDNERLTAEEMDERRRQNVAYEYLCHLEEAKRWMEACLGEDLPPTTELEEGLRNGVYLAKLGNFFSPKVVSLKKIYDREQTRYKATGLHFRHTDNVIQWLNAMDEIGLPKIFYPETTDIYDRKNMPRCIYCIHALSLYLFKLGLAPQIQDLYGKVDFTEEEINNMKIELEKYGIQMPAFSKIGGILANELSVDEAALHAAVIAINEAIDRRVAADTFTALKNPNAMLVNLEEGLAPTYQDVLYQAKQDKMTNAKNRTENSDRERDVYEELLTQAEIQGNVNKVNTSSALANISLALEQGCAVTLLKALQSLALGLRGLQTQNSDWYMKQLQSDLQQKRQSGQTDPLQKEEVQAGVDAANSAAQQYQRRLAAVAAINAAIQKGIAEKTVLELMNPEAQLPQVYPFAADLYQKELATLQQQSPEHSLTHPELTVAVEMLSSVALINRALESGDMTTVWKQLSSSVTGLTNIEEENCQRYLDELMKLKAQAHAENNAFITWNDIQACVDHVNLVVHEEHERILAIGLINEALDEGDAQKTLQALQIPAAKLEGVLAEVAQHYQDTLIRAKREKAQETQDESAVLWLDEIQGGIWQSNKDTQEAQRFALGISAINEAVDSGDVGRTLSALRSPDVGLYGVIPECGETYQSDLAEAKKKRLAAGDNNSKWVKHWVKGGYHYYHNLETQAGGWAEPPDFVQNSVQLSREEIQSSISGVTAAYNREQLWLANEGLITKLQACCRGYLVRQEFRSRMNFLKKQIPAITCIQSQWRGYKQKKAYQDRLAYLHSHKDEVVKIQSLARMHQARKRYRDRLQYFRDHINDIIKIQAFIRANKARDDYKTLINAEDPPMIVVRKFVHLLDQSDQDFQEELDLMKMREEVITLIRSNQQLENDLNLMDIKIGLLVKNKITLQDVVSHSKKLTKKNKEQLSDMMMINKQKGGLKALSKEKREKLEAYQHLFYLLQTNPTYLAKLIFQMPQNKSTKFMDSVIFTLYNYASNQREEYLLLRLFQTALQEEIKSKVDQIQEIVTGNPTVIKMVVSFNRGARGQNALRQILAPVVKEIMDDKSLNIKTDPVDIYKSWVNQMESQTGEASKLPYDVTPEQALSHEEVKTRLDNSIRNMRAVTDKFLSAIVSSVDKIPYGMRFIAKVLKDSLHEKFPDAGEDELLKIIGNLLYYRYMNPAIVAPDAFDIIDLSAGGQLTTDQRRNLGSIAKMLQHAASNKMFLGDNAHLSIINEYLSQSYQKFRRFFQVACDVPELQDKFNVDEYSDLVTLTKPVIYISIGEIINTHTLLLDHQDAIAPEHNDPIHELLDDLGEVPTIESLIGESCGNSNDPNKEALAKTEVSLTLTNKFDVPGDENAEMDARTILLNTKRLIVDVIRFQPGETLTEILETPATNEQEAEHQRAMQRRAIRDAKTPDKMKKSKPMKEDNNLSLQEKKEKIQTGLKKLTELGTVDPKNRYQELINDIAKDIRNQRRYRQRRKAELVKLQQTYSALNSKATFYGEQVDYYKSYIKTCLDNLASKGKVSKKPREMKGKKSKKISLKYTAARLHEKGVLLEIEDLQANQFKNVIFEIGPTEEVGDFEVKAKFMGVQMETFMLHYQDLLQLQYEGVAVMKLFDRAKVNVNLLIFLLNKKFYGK

Target: T1, Myc-tagged LGR5-WT (leucine-rich repeat-containing G protein-coupled receptor 5) (UniProt O75473)
T1 sequence: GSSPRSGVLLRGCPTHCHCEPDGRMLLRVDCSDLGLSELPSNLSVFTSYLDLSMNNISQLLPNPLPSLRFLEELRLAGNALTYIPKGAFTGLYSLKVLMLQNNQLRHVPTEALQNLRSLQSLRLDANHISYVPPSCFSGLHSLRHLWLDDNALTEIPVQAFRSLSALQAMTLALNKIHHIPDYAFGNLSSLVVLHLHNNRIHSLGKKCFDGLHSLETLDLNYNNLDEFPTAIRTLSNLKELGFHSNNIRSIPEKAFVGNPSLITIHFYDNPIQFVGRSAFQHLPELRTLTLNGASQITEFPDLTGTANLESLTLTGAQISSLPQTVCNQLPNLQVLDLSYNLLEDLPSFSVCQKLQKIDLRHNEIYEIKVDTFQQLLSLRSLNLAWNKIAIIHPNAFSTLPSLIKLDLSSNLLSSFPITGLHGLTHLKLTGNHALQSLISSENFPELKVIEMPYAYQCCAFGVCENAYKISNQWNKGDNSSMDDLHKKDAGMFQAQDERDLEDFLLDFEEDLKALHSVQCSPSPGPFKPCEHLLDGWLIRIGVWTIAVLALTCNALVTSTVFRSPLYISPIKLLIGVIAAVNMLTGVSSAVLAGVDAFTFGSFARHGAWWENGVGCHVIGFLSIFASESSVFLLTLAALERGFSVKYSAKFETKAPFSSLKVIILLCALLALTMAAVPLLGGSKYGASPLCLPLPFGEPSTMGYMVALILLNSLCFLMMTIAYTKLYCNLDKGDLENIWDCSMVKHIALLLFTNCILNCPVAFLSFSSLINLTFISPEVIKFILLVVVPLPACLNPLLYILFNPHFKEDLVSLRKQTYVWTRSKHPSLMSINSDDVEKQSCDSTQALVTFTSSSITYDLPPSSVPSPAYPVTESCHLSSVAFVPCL
Assay: co-IP; recombinant overexpression in HEK293T cells; whole-cell lysates incubated ~3-4 h at 4 °C with antibody magnetic beads (anti-Myc, anti-FLAG listed); Western blot

binding | Substance
binds weakly | FLAG-IQGAP1 GRD domain (RasGAP-related domain) (mouse) (domain or fragment)
binds | FLAG-IQGAP1 variant lacking the GRD domain (ΔGRD) (from UniProt Q9JKF1)

No constants are given. Whether binding was seen depends on the method and setting. Binding seen in cells or lysates may run through a third protein. Binding can be weak; no strength is given. Sequences can lack the tags named with a protein.
